Laboratory results: PubChem BioAssay AID1259424 (University of Nebraska Medical Center, 2018)

Screen: 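Find knockdowns that reproduce the expression shifts seen after KSR1 loss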 (primary screen)
Cells: human HCT116 colon cancer cells
Reagents: siRNA pool against human genes, 50 nM
Detection: 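Log2 levels of six mRNAs (branched-DNA multiplex), adjusted by two reference genes and the non-targeting median, then scored against the average KSR1 knockdown pattern as Pearson r and euclidean distance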
Direction: mean correlation with KSR1 profile: higher = expression change more like KSR1 knockdown; mean distance from KSR1 profile: higher = expression change less like KSR1 knockdown
In all, the deposit lists about 14,000 reagents; below is a random part of them. 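Higher correlation or smaller distance means closer resemblance to KSR1 loss; control wells, including KSR1 knockdowns, recur on many plates.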 Not all columns of the deposit are shown. No sequences are given here. The record does not give: the time to read-out.

With knock-down of MCOLN1 [SID364001729], the screen gave mean correlation with KSR1 profile -0.463; mean distance from KSR1 profile 2.35.
Silencing of GJA4 [SID363993267] gave: mean correlation with KSR1 profile -0.427; mean distance from KSR1 profile 3.18.
With knock-down of SLC35G5 [SID364004447] the results were mean correlation with KSR1 profile 0.858; mean distance from KSR1 profile 1.67.
KCNK7 [SID363996600] scored mean correlation with KSR1 profile 0.152; mean distance from KSR1 profile 2.35.
For ANKRD6 [SID364005572], the values are mean correlation with KSR1 profile -0.744; mean distance from KSR1 profile 1.68.
Against MKNK1 [SID363994759], the values are mean correlation with KSR1 profile 0.648; mean distance from KSR1 profile 0.895.
After knock-down of DLX5 [SID363996144], the record shows mean correlation with KSR1 profile 0.171; mean distance from KSR1 profile 1.82.
Knock-down of TCIRG1 [SID363996871] gave: mean correlation with KSR1 profile -0.215; mean distance from KSR1 profile 2.92.
Knock-down of FAM89B [SID364004746] came out at: mean correlation with KSR1 profile 0.294; mean distance from KSR1 profile 3.61.
REXO4 [SID364001652] showed mean correlation with KSR1 profile -0.376; mean distance from KSR1 profile 4.05.
After knock-down of LRP3 [SID363993518], the screen gave mean correlation with KSR1 profile -0.254; mean distance from KSR1 profile 2.12.
Silencing of ZNF695 [SID364001658] gave: mean correlation with KSR1 profile -0.575; mean distance from KSR1 profile 2.85.
PRKCZ [SID363993902] gave mean correlation with KSR1 profile 0.255; mean distance from KSR1 profile 4.28.
Depletion of ADIPOR2 [SID364002865] resulted in: mean correlation with KSR1 profile -0.612; mean distance from KSR1 profile 1.52.
UBA2 [SID363996401] gave mean correlation with KSR1 profile -0.274; mean distance from KSR1 profile 2.54.
After knock-down of UTS2 [SID363997555], the record shows mean correlation with KSR1 profile -0.375; mean distance from KSR1 profile 2.42.
Knock-down of DGKQ [SID363992624] came out at: mean correlation with KSR1 profile -0.589; mean distance from KSR1 profile 3.75.
For HAGH [SID363996242], the entry reads mean correlation with KSR1 profile -0.541; mean distance from KSR1 profile 2.49.
ZNF711 [SID364002274] gave mean correlation with KSR1 profile -0.206; mean distance from KSR1 profile 3.37.
Knock-down of UQCRQ [SID363998823] resulted in: mean correlation with KSR1 profile -0.599; mean distance from KSR1 profile 4.51.
After knock-down of TP53TG5 [SID363998889] the results were mean correlation with KSR1 profile 0.473; mean distance from KSR1 profile 1.43.
Depletion of F11R [SID364000282] resulted in: mean correlation with KSR1 profile -0.401; mean distance from KSR1 profile 3.71.
AIMP1 [SID363995714] scored mean correlation with KSR1 profile 0.325; mean distance from KSR1 profile 2.62.
With knock-down of EDDM3B [SID364002415] the results were mean correlation with KSR1 profile -0.402; mean distance from KSR1 profile 3.94.
Depletion of CNIH4 [SID363998641] resulted in: mean correlation with KSR1 profile 0.0554; mean distance from KSR1 profile 1.61.
For NIT1 [SID363996495], the values are mean correlation with KSR1 profile 0.234; mean distance from KSR1 profile 1.13.
Knock-down of IFNA4 [SID364001986] came out at: mean correlation with KSR1 profile 0.251; mean distance from KSR1 profile 2.15.
For KIT [SID363991557], the values are mean correlation with KSR1 profile -0.468; mean distance from KSR1 profile 3.09.

In a second layout: results already given
target,PubChem SID,mean correlation with KSR1 profile,mean distance from KSR1 profile
F11R,SID364000282,-0.401,3.71
AIMP1,SID363995714,0.325,2.62
EDDM3B,SID364002415,-0.402,3.94
CNIH4,SID363998641,0.0554,1.61
